Results are given in words; binding and its absence hold for the method and conditions named. Some binding calls cover weakened binding; strength is not graded here.
Biological target: Rad53 (S. cerevisiae) (UniProt P22216)
Test: two-hybrid; MCK1 in pGADT7, RAD53 in pGBKT7; strain AH109; growth on SC-Trp-Leu or SC-Trp-Leu-His plates with 0.5 mM 3-amino-triazole (3AT)

Sequences of proteins named here, by UniProt entry; tags and fusion partners are left off.
UniProt P22216: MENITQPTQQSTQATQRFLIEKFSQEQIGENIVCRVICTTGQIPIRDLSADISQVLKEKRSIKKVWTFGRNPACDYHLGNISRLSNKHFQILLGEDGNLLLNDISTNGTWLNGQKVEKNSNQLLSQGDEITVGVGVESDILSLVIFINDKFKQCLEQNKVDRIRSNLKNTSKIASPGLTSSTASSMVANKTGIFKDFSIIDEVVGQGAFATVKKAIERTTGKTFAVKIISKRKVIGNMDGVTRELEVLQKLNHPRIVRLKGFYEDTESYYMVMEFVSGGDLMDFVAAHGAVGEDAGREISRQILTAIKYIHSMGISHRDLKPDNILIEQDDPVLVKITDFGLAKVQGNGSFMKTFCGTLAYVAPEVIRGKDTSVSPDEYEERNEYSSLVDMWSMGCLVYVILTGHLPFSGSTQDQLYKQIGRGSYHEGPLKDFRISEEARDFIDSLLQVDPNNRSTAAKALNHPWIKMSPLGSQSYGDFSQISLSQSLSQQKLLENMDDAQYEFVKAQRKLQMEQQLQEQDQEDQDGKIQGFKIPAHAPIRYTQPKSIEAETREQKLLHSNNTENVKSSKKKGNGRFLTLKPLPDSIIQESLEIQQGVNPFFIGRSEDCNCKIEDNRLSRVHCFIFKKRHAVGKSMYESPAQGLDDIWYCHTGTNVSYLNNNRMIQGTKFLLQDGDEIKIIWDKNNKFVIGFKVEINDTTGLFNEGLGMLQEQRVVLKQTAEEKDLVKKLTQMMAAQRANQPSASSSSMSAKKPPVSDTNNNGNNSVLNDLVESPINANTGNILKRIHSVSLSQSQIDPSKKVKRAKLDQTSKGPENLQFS

- binding: binds
B1: Mck1 (enzyme, UniProt P21965 1-375)
chain: MSTEEQNGVPLQRGSEFIADDVTSNKSNNTRRMLVKEYRKIGRGAFGTVVQAYLTQDKKNWLGPFAIKKVPAHTEYKSRELQILRIADHPNIVKLQYFFTHLSPQDNKVYQHLAMECLPETLQIEINRYVTNKLEMPLKHIRLYTYQIARGMLYLHGLGVCHRDIKPSNVLVDPETGVLKICDFGSAKKLEHNQPSISYICSRFYRAPELIIGCTQYTTQIDIWGLGCVMGEMLIGKAIFQGQEPLLQLREIAKLLGPPDKRFIFFSNPAYDGPLFSKPLFSGSSQQRFEKYFGHSGPDGIDLLMKILVYEPQQRLSPRRILAHQFFNELRNDDTFLPRGFTEPIKLPNLFDFNDFELQILGEFADKIKPTKVAE

— publication PMC6695201
